{"source": "PubChem BioAssay AID445", "about": "(National Center for Advancing Translational Sciences (NCATS), 2006)", "note": "This is one part of the list. The main result of the screen is listed elsewhere. These columns were measured beside it and carry no call. The list favours compounds with an active or inconclusive main result. Words in brackets tell the shape of the fitted curve; partial curves, single points and poor fits give uncertain potencies.", "data": [{"test": "IkB Signaling", "conditions": "ABC-DLBCL IkBa-CBG/CBR dual luciferase ratio (green luciferase fused to IkBa over red control in OCI-Ly3 lymphoma cells), 4 h; measured here: control luc red channel unless noted", "how_it_was_run": "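Curves were fitted separately to fusion (green), unfused (red) and ratio luminescence, then classed by r2, magnitude and activity. Cells: OCI-Ly3, 4 h compound plus doxycycline at 37C; 10 uM MG-132 defined full response.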", "values": [{"compound": "CCc1cccc(C)c1NC(=O)C(NS(=O)(=O)c1ccc2c(c1)CCC(=O)N2)c1ccccc1", "note": "(stereo unspecified)", "AC50": "6.31 µM [falling, partial curve]"}, {"compound": "Cc1ccc(C)c(N2CCN(C(c3ccccc3)c3nnc(-c4ccccc4)o3)CC2)c1", "note": "(stereo unspecified)", "AC50": "10 µM [falling, partial curve]"}, {"compound": "Cc1ccc(NS(=O)(=O)c2c(C)nc3sc(C)c(C)n3c2=O)cc1F", "AC50": "15.8 µM [falling, single point]"}, {"compound": "COC(=O)c1cc2sc(Cl)cc2n1CC(=O)N1CCCc2ccccc21", "AC50": "10 µM [falling, partial curve]"}, {"compound": "CC(C)OC(=O)c1ccc(NC(=O)CSc2nc(-c3cccs3)cc(C(F)(F)F)n2)cc1", "AC50": "5.01 µM [falling, full curve, poor fit]"}, {"compound": "COc1ccccc1N1CCN(CCN2C(=O)c3ccccc3C(C)(C)C2=O)CC1", "AC50": "31.6 µM [falling, partial curve]"}, {"compound": "COc1ccc(NC(=O)CSCc2cc(=O)c3cc(Cl)ccc3[nH]2)cc1", "AC50": "6.31 µM [falling, partial curve, poor fit]"}, {"compound": "Cc1ccc(N2CC(NC(=O)C3CCCCC3)CC2=O)cc1", "note": "(stereo unspecified)", "AC50": "5.01 µM [falling, partial curve]"}, {"compound": "CCc1ccc(C(=O)c2cn(CC(=O)Nc3ccc(F)cc3)c3ccc(F)cc3c2=O)cc1", "AC50": "25.1 µM [falling, single point]"}, {"compound": "Cc1cccc(C(=O)Nc2cc(-c3ccccc3F)nn2-c2ccccc2)c1", "AC50": "6.31 µM [falling, single point]"}, {"compound": "Cc1ccc(CC(=O)NCc2nc(-c3ccccc3)no2)cc1", "AC50": "15.8 µM [falling, partial curve]"}, {"compound": "O=C(NCCc1ccccc1Cl)c1cc2ccccn2n1", "AC50": "20 µM [falling, single point]"}, {"compound": "Cc1cc(SCC(=O)Nc2ccc(F)cc2F)nc(=O)[nH]1", "AC50": "3.98 µM [rising, single point] [measured here: IkB-luc green channel]"}, {"compound": "Cc1ccc(S(=O)(=O)NCCc2nnc3ccc(SCC(=O)Nc4c(C)cc(C)cc4C)nn23)cc1", "AC50": "10 µM [falling, partial curve, poor fit]"}, {"compound": "CCOc1ccc(CCNC(=O)c2c3c(nc4ccccc24)C(=O)N(C2CCCCC2)C3)cc1", "AC50": "31.6 µM [falling, single point]"}, {"compound": "Cc1ccc(C)c(NC(=O)c2oc(=O)c3ccccc3c2-c2ccccc2)c1", "AC50": "15.8 µM [falling, partial curve]"}, {"compound": "CCCc1nn2c(=O)cc(COC(=O)c3ccc4c(c3)OCO4)nc2s1", "AC50": "39.8 µM [falling, partial curve, poor fit]"}, {"compound": "Cc1ccc(-c2c(C(=O)Nc3ccccc3F)oc(=O)c3ccccc23)cc1", "AC50": "10 µM [falling, partial curve]"}, {"compound": "Cc1nc2cc(-c3cccc(F)c3)nn2c(N2CCOCC2)c1C", "AC50": "3.16 µM [rising, partial curve, poor fit]"}, {"compound": "Cc1ccc(C)c(N2CCN(C(=O)Cn3cnc4nc5c(cc4c3=O)CCCC5)CC2)c1", "AC50": "25.1 µM [falling, partial curve]"}, {"compound": "CCOC(=O)c1cccc(NC(=O)C2=C(C)C(=O)OC23CCCCC3)c1", "AC50": "39.8 µM [falling, single point]"}, {"compound": "Cc1ccc(C)c(Cn2c(SCC(=O)NCc3ccccc3)nc3ccccc32)c1", "AC50": "39.8 µM [falling, single point]"}, {"compound": "COc1ccc(CNc2ncnc3c2c(-c2ccccc2)cn3-c2ccc(C)c(Cl)c2)cc1", "AC50": "0.0398 µM [falling, full curve, poor fit]"}, {"compound": "COc1cccc(C(=O)Nc2nc(-c3nnn(-c4cccc(Cl)c4C)c3C)ns2)c1", "AC50": "12.6 µM [falling, partial curve]"}, {"compound": "COc1ccc(NC(=O)Cn2c(=O)n(-c3ccc(OC)cc3)c(=O)c3sc4ccccc4c32)cc1", "AC50": "20 µM [rising, partial curve]"}, {"compound": "O=c1[nH]c(=O)n(C2CCCCCC2)c(O)c1C=NCc1ccc(F)cc1", "AC50": "31.6 µM [falling, single point]"}, {"compound": "COc1ccc2c(CNCc3ccco3)c(C(=O)O)n(Cc3cccc(F)c3)c2c1", "AC50": "15.8 µM [falling, single point]"}, {"compound": "CCCN(CCC)C(=O)C1CCN(c2cc(C)nc3c(-c4ccc(Cl)cc4)c(C)nn23)CC1", "AC50": "15.8 µM [falling, partial curve]"}, {"compound": "O=C(NCCO)c1ccc(-c2nnc(Nc3ccc(OC(F)(F)Cl)cc3)c3ccccc23)cc1", "AC50": "25.1 µM [falling, partial curve]"}, {"compound": "Cc1ccnc(NC(=O)CCC2CCCCC2)c1", "AC50": "15.8 µM [falling, single point]"}, {"compound": "COc1cccc(CNCc2c(C(=O)O)n(Cc3ccc(C)cc3)c3cc(C)ccc23)c1OC", "AC50": "31.6 µM [falling, partial curve]"}, {"compound": "CCC1CCCCN1CCCNC(=O)c1ccc2c(c1)N(Cc1cccc(Cl)c1)C(=O)c1ccccc1S2(=O)=O", "note": "(stereo unspecified)", "AC50": "15.8 µM [falling, partial curve]"}, {"compound": "C[C@@]12CCC(=O)C=C1CC[C@H]1[C@H]3CC[C@](O)(C(=O)CO)[C@]3(C)CC(=O)[C@@H]12", "AC50": "5.01 µM [rising, full curve, poor fit] [measured here: IkB-luc green channel]"}, {"compound": "O=c1oc2c(CN3CCOCC3)c(O)ccc2cc1-c1ccccc1", "AC50": "3.16 µM [rising, full curve]"}, {"compound": "O=C(NCCc1nc2ccccc2n1Cc1ccc(Cl)cc1)c1ccccc1", "AC50": "25.1 µM [falling, single point]"}, {"compound": "Cc1nnc(NC(=O)CSc2nc3c([nH]c4ccccc43)c(=O)n2-c2cccc(Cl)c2)s1", "AC50": "39.8 µM [falling, single point]"}, {"compound": "COc1ccc(-c2nc3ccccc3o2)cc1NC(=O)c1cc(Br)ccc1OC", "AC50": "25.1 µM [falling, single point]"}, {"compound": "COc1ccc(CCNC(=O)c2cnc3sc(N4CCCCCC4)nn3c2=O)cc1", "AC50": "12.6 µM [falling, partial curve]"}, {"compound": "c1ccc(-c2noc(CSc3nnc(Cc4cccs4)n3-c3ccccc3)n2)cc1", "AC50": "20 µM [falling, single point]"}, {"compound": "O=C(COc1ccccc1)Nc1nc(-c2cccs2)cs1", "AC50": "39.8 µM [falling, single point]"}, {"compound": "CC(=O)Nc1nc2ccccc2n1CCOc1ccccc1Cl", "AC50": "31.6 µM [rising, partial curve] [measured here: IkB-luc green channel]"}, {"compound": "COc1ccc(N2CCN(C(=O)C3CCCN(S(=O)(=O)c4ccc5c(c4)oc(=O)n5C)C3)CC2)cc1", "note": "(stereo unspecified)", "AC50": "39.8 µM [falling, single point]"}, {"compound": "COc1ccccc1CCNC(=O)C1(c2cccs2)CCOCC1", "AC50": "31.6 µM [rising, single point]"}, {"compound": "COc1ccc(NC(=O)Cn2c(=O)oc3cc(S(=O)(=O)N4CCCC4)ccc32)cc1OC", "AC50": "7.94 µM [falling, partial curve]"}, {"compound": "Cc1cccc(NC(=O)CN2C(=O)C(c3ccc(F)cc3)=NC23CCCCCC3)c1C", "AC50": "20 µM [falling, partial curve]"}, {"compound": "Cc1c(C(=O)NCCC2=CCCCC2)oc2ccc(S(=O)(=O)N3CCOCC3)cc12", "AC50": "7.94 µM [falling, partial curve]"}, {"compound": "Cc1ccc(C2C(C#N)=C(N)SC(N)=C2C#N)c(C)c1", "AC50": "25.1 µM [falling, single point]"}, {"compound": "Cc1ccc(-n2ncc3c(NC4CCCCC4)ncnc32)cc1C", "AC50": "12.6 µM [falling, partial curve]"}, {"compound": "CCOC(=O)c1cc2c(=O)n3ccccc3nc2n(CCOC)c1=NC(=O)c1c(-c2c(F)cccc2Cl)noc1C", "AC50": "0.251 µM [falling, full curve]"}, {"compound": "O=C(c1ccccc1)n1nc(-c2ccc(Cl)cc2)nc1NCc1ccco1", "AC50": "12.6 µM [falling, partial curve]"}, {"compound": "COC(=O)c1[nH]c2ccc(C)cc2c1NC(=O)CN1CCCC(C)(C)C1", "AC50": "25.1 µM [falling, partial curve]"}, {"compound": "CCCN(C(=O)c1ccc2c(=O)n3c(nc2c1)CCCCC3)c1cccc(Cl)c1", "AC50": "39.8 µM [falling, single point]"}, {"compound": "COc1ccc(OCC(=O)N2CCN(C(=O)c3ccc(OC)c(OC)c3)CC2)cc1", "AC50": "0.251 µM [rising, full curve, poor fit]"}, {"compound": "Cc1cccc(C)c1NC(=O)CCSCCc1ccccn1", "AC50": "3.16 µM [rising, single point]"}, {"compound": "COc1ccccc1CN1CCC(CNC(=O)c2cnn(-c3cccc(Cl)c3)c2C2CCN(C(=O)OC(C)(C)C)CC2)CC1", "AC50": "5.01 µM [falling, partial curve, poor fit]"}, {"compound": "O=C(CCS(=O)(=O)c1cc(Br)cc2c1N(C(=O)C1CC1)CC2)NCc1ccccc1Cl", "AC50": "3.16 µM [rising, single point]"}, {"compound": "COC(=O)c1sccc1S(=O)(=O)N(CC(=O)Nc1c(C)cccc1C)c1ccc(C)c(C)c1", "AC50": "12.6 µM [falling, partial curve]"}, {"compound": "COc1ccc2c(c1)c(=O)c(S(=O)(=O)c1ccc(C)cc1)cn2Cc1ccccc1C", "AC50": "25.1 µM [falling, single point]"}, {"compound": "COC(=O)C(C)n1nnc2sc(-c3ccccc3)cc2c1=O", "note": "(stereo unspecified)", "AC50": "15.8 µM [falling, single point]"}, {"compound": "CCC(C(=O)Nc1cc(F)ccc1F)n1nc(-c2cc(C)ccc2C)ccc1=O", "note": "(stereo unspecified)", "AC50": "25.1 µM [falling, single point]"}, {"compound": "Oc1c(Cl)cc(Cl)c(Cl)c1Cc1c(O)c(Cl)cc(Cl)c1Cl", "AC50": "0.501 µM [falling, full curve]"}]}]}
